Results taken from publication PMC7106964.
No constants are given. Whether binding was seen depends on the method and setting. Binding seen in cells or lysates may run through a third protein. Some binding calls cover weakened binding; strength is not graded here. For some assays here: Where a sequence is shown, tags or fusion partners need not be part of it. One block for each binder: values may come before it.

Sequences of proteins named here, by UniProt entry; tags and fusion partners are left off.
UniProt Q92993: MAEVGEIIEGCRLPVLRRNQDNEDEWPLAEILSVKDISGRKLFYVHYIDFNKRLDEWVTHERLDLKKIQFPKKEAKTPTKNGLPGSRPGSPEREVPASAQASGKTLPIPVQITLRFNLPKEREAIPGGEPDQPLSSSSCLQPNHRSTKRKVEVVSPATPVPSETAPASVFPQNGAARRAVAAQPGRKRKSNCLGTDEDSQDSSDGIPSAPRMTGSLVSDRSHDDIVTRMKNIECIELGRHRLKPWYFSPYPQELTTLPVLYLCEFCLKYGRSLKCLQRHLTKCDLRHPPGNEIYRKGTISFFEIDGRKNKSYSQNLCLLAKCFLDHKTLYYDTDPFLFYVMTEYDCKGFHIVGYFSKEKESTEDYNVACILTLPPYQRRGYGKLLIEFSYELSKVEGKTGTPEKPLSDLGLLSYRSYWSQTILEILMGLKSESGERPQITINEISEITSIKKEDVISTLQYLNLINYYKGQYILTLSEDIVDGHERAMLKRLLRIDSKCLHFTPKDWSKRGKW

Experiments:
[1] = target: Tip60 (construct not named for the co-IP) (human) (UniProt Q92993); assay: co-IP; HEK-293T whole cell lysates in RIPA buffer, antibody 3 h at 4°C, then protein A/G Sepharose 3 h, immunoblot; cells with or without Eto or CPT; in Figure 6D with or without overexpressed RNF8
[2] = target: p53 (construct not named for the co-IP) (human) (UniProt P04637); assay: as above
[3] = target: Tip60 (endogenously expressed) (human (endogenous in U2OS)) (UniProt Q92993); assay: proximity ligation; in situ PLA of endogenously expressed proteins (Figure S8A)
Flag‐Tip60 (human) = Flag‐Tip60 (human) (UniProt Q92993); assay: proximity ligation; U2OS cells transfected 48 h with the indicated plasmids, fixed, Duolink in situ PLA with probes against HA and Flag; in Figure 6E with overexpressed RNF8
GST‐p53 (human) = GST‐p53 (human) (UniProt P04637); assay: pull-down; beads coated with GST or GST-p53 incubated 3 h with RIPA lysate of HEK-293T cells expressing GFP-RNF8; anti-GFP immunoblot; only the target purified

B2: RNF8 (endogenously expressed) (protein, UniProt O76064 1-485)
chain: MGEPGFFVTGDRAGGRSWCLRRVGMSAGWLLLEDGCEVTVGRGFGVTYQLVSKICPLMISRNHCVLKQNPEGQWTIMDNKSLNGVWLNRARLEPLRVYSIHQGDYIQLGVPLENKENAEYEYEVTEEDWETIYPCLSPKNDQMIEKNKELRTKRKFSLDELAGPGAEGPSNLKSKINKVSCESGQPVKSQGKGEVASTPSDNLDPKLTALEPSKTTGAPIYPGFPKVTEVHHEQKASNSSASQRSLQMFKVTMSRILRLKIQMQEKHEAVMNVKKQTQKGNSKKVVQMEQELQDLQSQLCAEQAQQQARVEQLEKTFQEEEQHLQGLEIAQGEKDLKQQLAQALQEHWALMEELNRSKKDFEAIIQAKNKELEQTKEEKEKMQAQKEEVLSHMNDVLENELQCIICSEYFIEAVTLNCAHSFCSYCINEWMKRKIECPICRKDIKSKTYSLVLDNCINKMVNNLSSEVKERRIVLIRERKAKRLF
binding [3]: binds

B4: GFP‐tagged RNF8 (protein, UniProt O76064 1-485)
chain: B2 chain
binding (GST‐p53 (human)): binds

Now from value to binder:

binding [1]: binds
binding [2]: binds
B1: RNF8 (construct not named for the experiment) (protein, UniProt O76064 1-485)
chain: B2 chain

binding (Flag‐Tip60 (human)): binds
B3: HA‐RNF8 (protein, UniProt O76064 1-485)
chain: B2 chain
